Results on 1 substance are retold here after patent publication US10589001B2, “Pharmaceutical formulation for use in spinal fusion” (Kuros Biosurgery AG, priority 2011, dated 2020).

This data set in a line: Adsorption of PTH1-34 onto HA/TCP granules (UV-Vis spectroscopy at 280 nm). It counts as physicochemical. The conditions noted are these: UV-Vis 280 nm.

In the case of “PTH1-34: truncated parathyroid hormone 1-34, non covalently adsorbed onto ceramic matrix; no fusion peptide needed”, where the note is “1.0, 0.5, 0.25, 0.1, 0.05 mg PTH1-34/ml water or buffer mixed with HA/TCP granules”, the “amount of PTH1-34 present in the solution adsorbed onto the granules” value is listed as “approximately 25%”. Besides, the “maximum amount of PTH1-34 on the matrix” value (HA/TCP granules) is reported as 1 mg PTH per 1 g of matrix (HA/TCP).
